Data taken from paper doi:10.1101/2025.05.24.655746 (bioRxiv, 2025).
No constants are given. Whether binding was seen depends on the method and setting.

Sequences of proteins named here, by UniProt entry; tags and fusion partners are left off. A change or cut given only in a name is not applied to a line headed by its entry.
UniProt Q06609: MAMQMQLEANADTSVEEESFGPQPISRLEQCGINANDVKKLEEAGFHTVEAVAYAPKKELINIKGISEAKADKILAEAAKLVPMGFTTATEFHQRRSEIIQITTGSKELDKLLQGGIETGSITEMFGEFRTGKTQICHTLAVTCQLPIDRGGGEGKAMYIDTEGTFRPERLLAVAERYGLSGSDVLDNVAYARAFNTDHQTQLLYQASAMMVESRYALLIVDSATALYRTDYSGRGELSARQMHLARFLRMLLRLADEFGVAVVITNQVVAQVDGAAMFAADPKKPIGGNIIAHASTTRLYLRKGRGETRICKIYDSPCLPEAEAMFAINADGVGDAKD

Target: T1, full-length RAD51AP1 (RAD51 Associated Protein 1), wild type (UniProt Q96B01)
T1 sequence: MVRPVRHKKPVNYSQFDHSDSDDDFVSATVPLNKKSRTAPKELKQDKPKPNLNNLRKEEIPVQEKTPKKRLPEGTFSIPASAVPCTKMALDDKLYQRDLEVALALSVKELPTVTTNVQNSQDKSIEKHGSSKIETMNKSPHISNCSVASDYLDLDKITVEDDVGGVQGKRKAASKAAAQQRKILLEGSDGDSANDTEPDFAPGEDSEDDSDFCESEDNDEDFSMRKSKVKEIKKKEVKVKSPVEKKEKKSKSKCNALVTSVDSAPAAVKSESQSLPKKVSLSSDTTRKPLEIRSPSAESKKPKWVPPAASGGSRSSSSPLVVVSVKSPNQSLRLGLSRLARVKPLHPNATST
Assay: pull-down

## RAD51-F86E (oligomerisation defective mutant) (from UniProt Q06609 1-339)
  binding: no binding (tested: 1 µM)
